Results taken from patent US20060083794A1, “Use of an extract from the plant argania spinosa” (priority 2002, published 2006).

Tested on: reconstructed human epidermis (SkinEthic)
Test: Transepidermal diffusion of 14C testosterone (and metabolites) through reconstructed human epidermis
Assay type: cell-based
Settings: Finasterid 10 μm, t = 24 hours

Structure (SMILES): CC(C)(C)NC(=O)[C@H]1CC[C@H]2[C@@H]3CC[C@H]4NC(=O)C=C[C@]4(C)[C@H]3CC[C@]12C [Finasterid, Finasteride]
- % 14C Testosterone (transepidermal diffusion) (control = 100): 110%
- Nmole steroid (diffused) (total testosterone 4.5, control 2.2): 2.4 nmol
